Reference: the supplement of paper PMC4604168 (melanoma cell lines)
This is one part of the list. Single values are uncertain, as repeats are few or missing.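 Cells were imaged in 1,536-well plates, and nuclei stained with an antibody against cleaved PARP were counted against all DNA-stained nuclei to give the apoptosis fraction. Screening doses were chosen to leave most cells alive, and resting and induced cleaved-PARP levels differ strongly between cell lines.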

test system: WM451Lu; experiment: cleaved PARP positive nuclei fraction relative to DMSO control; melanoma cells; higher = more apoptosis; conditions: library dose: low library concentration; 72 h

Row | Structure (SMILES) | cleaved PARP positive nuclei fraction
1 | C[As](C)SC[C@H](NC(=O)CC[C@H](N)C(=O)O)C(=O)NCC(=O)O [Darinaparsin] + Cc1cc(N2CCOCC2)cc2[nH]c(-c3c(NC[C@@H](O)c4cccc(Cl)c4)cc[nH]c3=O)nc12 [BMS536924] (first compound 0.4 µM, partner dose 0.2 µM) | 123%
2 | N.N.[Cl][Pt][Cl] [cisplatin] + Nc1ccn([C@@H]2O[C@H](CO)[C@@H](O)C2(F)F)c(=O)n1 [gemcitabine] (first compound 1.6 µM, partner dose 0.0004 µM) | 88.7%
3 | CC(C)C[C@H](NC(=O)[C@H](Cc1ccccc1)NC(=O)c1cnccn1)B(O)O [Bortezomib] + O=C(Oc1ccc([N+](=O)[O-])cc1)N1CCC(C(O)(c2ccc3c(c2)OCO3)c2ccc3c(c2)OCO3)CC1 [JZL184] (first compound 0.001 µM, partner dose 1 µM) | 89.2%
4 | Cc1cc([N+](=O)[O-])ccc1NS(=O)(=O)c1cc(Cl)ccc1Cl + O=C(Oc1ccc([N+](=O)[O-])cc1)N1CCC(C(O)(c2ccc3c(c2)OCO3)c2ccc3c(c2)OCO3)CC1 [JZL184] (first compound 1 µM, partner dose 1 µM) | 131%
5 | C[C@]12O[C@H](C[C@]1(O)CO)n1c3ccccc3c3c4c(c5c6ccccc6n2c5c31)CNC4=O [Lestaurtinib] + NC(=O)Nc1cc(-c2cccc(F)c2)sc1C(=O)N[C@H]1CCCNC1 [AZD7762] (first compound 0.004 µM, partner dose 0.02 µM) | 40.8%
6 | Cn1cc(C2=C(c3cn(C4CCN(Cc5ccccn5)CC4)c4ccccc34)C(=O)NC2=O)c2ccccc21 [Enzastaurin] + CO[C@H]1C[C@@H]2CC[C@@H](C)[C@@](O)(O2)C(=O)C(=O)N2CCCC[C@H]2C(=O)O[C@H]([C@H](C)C[C@@H]2CC[C@@H](OCCO)[C@H](OC)C2)CC(=O)[C@H](C)/C=C(\C)[C@@H](O)[C@@H](OC)C(=O)[C@H](C)C[C@H](C)/C=C/C=C/C=C/1C [everolimus] (first compound 0.8 µM, partner dose 0.02 µM) | 78.5%
7 | Cn1cc(C2=C(c3cn(C4CCN(Cc5ccccn5)CC4)c4ccccc34)C(=O)NC2=O)c2ccccc21 [Enzastaurin] + CC(C)(C)c1cnc(CSc2cnc(NC(=O)C3CCNCC3)s2)o1 [SNS-032] (first compound 0.8 µM, partner dose 0.01 µM) | 190%
8 | C[C@@H](Oc1cc(-c2cnn(C3CCNCC3)c2)cnc1N)c1c(Cl)ccc(F)c1Cl [Crizotinib] + C[As](C)SC[C@H](NC(=O)CC[C@H](N)C(=O)O)C(=O)NCC(=O)O [Darinaparsin] (first compound 0.2 µM, partner dose 0.4 µM) | 50.8%
9 | C[C@]12O[C@H](C[C@]1(O)CO)n1c3ccccc3c3c4c(c5c6ccccc6n2c5c31)CNC4=O [Lestaurtinib] + C[C@]1(c2nc3c(C(N)=O)cccc3[nH]2)CCCN1 [Veliparib] (first compound 0.004 µM, partner dose 1.4 µM) | 151%
10 | CS(=O)(=O)CCNCc1ccc(-c2ccc3ncnc(Nc4ccc(OCc5cccc(F)c5)c(Cl)c4)c3c2)o1 [lapatinib] + Cc1cc(SCc2sc(-c3ccc(C(F)(F)F)c(F)c3)nc2C)ccc1OCC(=O)O [GW0742] (first compound 0.8 µM, partner dose 2 µM) | 96.5%
11 | C[C@]12O[C@H](C[C@]1(O)CO)n1c3ccccc3c3c4c(c5c6ccccc6n2c5c31)CNC4=O [Lestaurtinib] + Nc1ccn([C@@H]2O[C@H](CO)[C@@H](O)C2(F)F)c(=O)n1 [gemcitabine] (first compound 0.004 µM, partner dose 0.0004 µM) | 78.5%

Reprinted at random: two entries already listed, in no set order.
Row | Structure (SMILES) | cleaved PARP positive nuclei fraction
2 | N.N.[Cl][Pt][Cl] [cisplatin] + Nc1ccn([C@@H]2O[C@H](CO)[C@@H](O)C2(F)F)c(=O)n1 [gemcitabine] (first compound 1.6 µM, partner dose 0.0004 µM) | 88.7%
10 | CS(=O)(=O)CCNCc1ccc(-c2ccc3ncnc(Nc4ccc(OCc5cccc(F)c5)c(Cl)c4)c3c2)o1 [lapatinib] + Cc1cc(SCc2sc(-c3ccc(C(F)(F)F)c(F)c3)nc2C)ccc1OCC(=O)O [GW0742] (first compound 0.8 µM, partner dose 2 µM) | 96.5%
